# Experimental data published in patent US20020049157A1, “Use of proteasome inhibitors for treating cancer, inflammation, autoimmune disease, graft rejection and septic shock” (priority 1998, published 2002).
# At least one structure is not confirmed: it was looked up by name or label, or the drawing left a doubt.
# How the values were obtained:
# Assay type in all cases: cell-based, human
# PA28β [1] = assay: Northern blot of PA28β mRNA in tonsillar T cells; conditions: RAPA 10 nM, CsA 1 μM, FK506 10 nM
# PA28α [2] = assay: Northern blot of PA28α mRNA in tonsillar T cells; conditions: PHA-activated T cells
# PA28β [3] = assay: Immunoblotting of PA28β protein in T cells; conditions: PHA plus 50 nM RAPA; 24 h
# PA28β [4] = assay: Confocal immunofluorescence microscopy of PA28β protein in T cells; conditions: RAPA plus PHA vs PHA alone; 50 nM RAPA; 24 h
# PA28β [5] = assay: Northern blot of PA28β mRNA in tonsillar B cells
# PA28α [6] = assay: Confocal immunofluorescence microscopy of PA28α protein in T cells; conditions: RAPA plus PHA vs PHA alone; 50 nM RAPA; 24 h
Compound,PHA-augmented PA28β mRNA expression (PA28β [1]),upregulation of PA28α mRNA expression (PA28α [2]),increase of PA28β protein in activated T cells (immunoblotting) (PA28β [3]),PA28β protein level (confocal immunofluorescence) (PA28β [4]),SAC and IL-2 upregulated PA28β mRNA expression (PA28β [5]),PA28α protein level (confocal immunofluorescence) (PA28α [6])
C=CC[C@@H]1/C=C(\C)C[C@H](C)C[C@H](OC)[C@H]2O[C@@](O)(C(=O)C(=O)N3CCCC[C@H]3C(=O)O[C@H](/C(C)=C/[C@@H]3CC[C@@H](O)[C@H](OC)C3)[C@H](C)[C@@H](O)CC1=O)[C@H](C)C[C@@H]2OC [FK506],sensitive,repressed,–,–,–,–
"CO[C@H]1C[C@@H]2CC[C@@H](C)[C@@](O)(O2)C(=O)C(=O)N2CCCC[C@H]2C(=O)O[C@H]([C@H](C)C[C@@H]2CC[C@@H](O)[C@H](OC)C2)CC(=O)[C@H](C)/C=C(\C)[C@@H](O)[C@@H](OC)C(=O)[C@H](C)C[C@H](C)/C=C/C=C/C=C/1C [RAPA, Rapamycin]",suppressed,repressed,increase was inhibited,significantly lower levels,inhibitory,significantly lower levels
